The text below walks through data of PubChem BioAssay AID330 (DTP/NCI, 2004).

In the assay the test system is P388 leukemia ip, CD2F1 mice, survival T/C. The assay can be described thus: NCI In Vivo Anticancer Drug Screen. Data for tumor model P388 Leukemia (intraperitoneal) in CD2F1 (CDF1) mice. To be noted: T/C endpoint: median survival time, higher T/C = longer survival.
Setting [1] is: dose: 50.0 mg/kg/injection, schedule: Q01DX009 (ip), vehicle: other.
Where [2] appears, read: dose: 50.0 mg/kg/injection, schedule: Q01DX005 (ip), vehicle: saline with Tween-80.
Where [3] appears, read: dose: 100.0 mg/kg/injection, schedule: Q01DX005 (ip), vehicle: saline with Tween-80.
Where [4] appears, read: dose: 200.0 mg/kg/injection, schedule: Q01DX005 (ip), vehicle: saline with Tween-80.
The mark [5] stands for this setting: dose: 100.0 mg/kg/injection, schedule: Q01DX001 (ip), vehicle: Klucel (hydroxypropylcellulose) (HPC).
The mark [6] stands for this setting: dose: 200.0 mg/kg/injection, schedule: Q01DX005 (ip), vehicle: Klucel (hydroxypropylcellulose) (HPC).
The mark [7] stands for this setting: dose: 12.5 mg/kg/injection, schedule: Q01DX005 (ip), vehicle: saline with Tween-80.

The list does not hold the whole screen: it is rich in T/C values a quarter to a half above the control, in often repeated tests (any T/C) and in doses without a T/C. Further doses and runs are listed elsewhere. T/C is the treated group as % of the vehicle group. Some entries give survivors of the animals treated and no T/C: the source holds a T/C of zero for them, seemingly a mark for toxic or unscored doses. Some survivor counts are full or nearly so, which does not show that the dose was tolerated: the source hardly ever lists a survival T/C far under the control, and the zero likely stands for such cases as well. Survivors were counted at the toxicity check, usually on the fifth day, unless a day is given; later deaths do not show. Schedules are NCI's codes, read here as Q, the interval in days (D) or hours (H), X, the number of doses. Some entries were tested several times; the values are given in rising order. Where survival is the endpoint, this PubChem deposit counts one and a half times the control or more as active, and values a quarter to a half above the control carry no call in these data; other NCI protocols may use other cut-offs. Some T/C values are followed by the survivors on the day toxicity was checked, most often the fifth; where none is given, no animal had died by that day.

As for `CC(=O)Nc1ccc(Nc2nc(Cl)nc(Nc3ccc(NC(C)=O)cc3)n2)cc1`, the survivor count (dose: 120.0 mg/kg/injection, schedule: Q01DX005 (ip), vehicle: Klucel (hydroxypropylcellulose) (HPC)) is on record as 6 of 6.

Consider `O=CNNC(=S)Nc1ccccc1`, for which, under “dose: 400.0 mg/kg/injection, schedule: Q01DX009 (ip), vehicle: saline with Tween-80”, the survivor count is reported as 2 of 6.

Consider `COc1cc2ccc(/C=C\[N+](=O)[O-])cc2cc1OC`, for which the T/C runs as follows: (dose: 25.0 mg/kg/injection, schedule: Q01DX009 (ip), vehicle: other) 130 % of control; under setting [1], 126 % of control. Moreover, the survivor count under setting [1] is 3 of 6; the survivor count (dose: 100.0 mg/kg/injection, schedule: Q01DX009 (ip), vehicle: other) is on record as 1 of 6; the survivor count (dose: 200.0 mg/kg/injection, schedule: Q01DX009 (ip), vehicle: other) is 3 of 6.

As for `[NH-]CC(=O)O.[NH-]CC(=O)O.[Ni+2]`, the survivor count is recorded as 6 of 6 (dose: 25.0 mg/kg/injection, schedule: Q01DX005 (ip), vehicle: saline with Tween-80); 1 of 6 under setting [2]; 0 of 6 under setting [3]; 0 of 6 under setting [4].

As to `C=C(C)C(=O)N(CC)CC`, the survivor count (dose: 50.0 mg/kg/injection, schedule: Q01DX009 (ip), vehicle: saline) is listed as 6 of 6.

`Cc1ccc(S(=O)(=O)N/N=C2/C=CC3(CCCC3)CC2)cc1`: under setting [5], the survivor count was 6 of 6.

As to `CN(C)C1=NC(NCc2ccccc2)(N(C)C)OC(N(C)C)=N1` (stereo unspecified), the survivor count by setting is: (dose: 100.0 mg/kg/injection, schedule: Q01DX005 (ip), vehicle: saline) 2 of 6; (dose: 200.0 mg/kg/injection, schedule: Q01DX005 (ip), vehicle: saline) 0 of 6.

For `O=C(O)c1c2ccccc2nc2[nH]c(=O)[nH]c(=O)c12`, under setting [6], the survivor count is given as 3 of 6.

For the molecule `C=C(c1ccc(OC)cc1)C(CC)c1ccc(OC)cc1` (stereo unspecified), the survivor count (dose: 240.0 mg/kg/injection, schedule: Q01DX005 (ip), vehicle: saline with Tween-80) is listed as 6 of 6.

Regarding `O=c1n(-c2ccccc2)c(=O)n2n1C1C=CC2C2C3OC3C21` (stereo unspecified), the survivor count is recorded as 0 of 6 (dose: 100.0 mg/kg/injection, schedule: Q04DX003 (ip), vehicle: Klucel (hydroxypropylcellulose) (HPC)); 0 of 6 (dose: 200.0 mg/kg/injection, schedule: Q04DX003 (ip), vehicle: Klucel (hydroxypropylcellulose) (HPC)); 0 of 6 (dose: 400.0 mg/kg/injection, schedule: Q04DX003 (ip), vehicle: Klucel (hydroxypropylcellulose) (HPC)).

Turning to `CC(=O)OC1C2CC([CH]1[Hg][Cl])C1C3CCC(C3)C21` (stereo unspecified), the survivor count reads like this: (dose: 100.0 mg/kg/injection, schedule: Q04DX002 (ip), vehicle: saline with Tween-80) 0 of 6; (dose: 200.0 mg/kg/injection, schedule: Q04DX002 (ip), vehicle: saline with Tween-80) 0 of 6; (dose: 400.0 mg/kg/injection, schedule: Q04DX002 (ip), vehicle: saline with Tween-80) 0 of 6.

For the molecule `O=[N+]([O-])c1ccccc1N/N=C\c1c(Cl)[nH]c2ccccc12`, the survivor count under setting [6] is 6 of 6.

For the molecule `O=C1CN(c2cccc(C(F)(F)F)c2)C(=O)CN1/N=C/c1ccc(O)c(O)c1`, the survivor count is 6 of 6 under setting [2], 6 of 6 under setting [3] and 6 of 6 under setting [4].

As for `CNC(=O)OCC1=C(COC(=O)NC)C(=O)c2ccccc2C1=O`, the survivor count is 0 of 6 (dose: 50.0 mg/kg/injection, schedule: Q01DX005 (ip), vehicle: Klucel (hydroxypropylcellulose) (HPC)); 0 of 6 (dose: 100.0 mg/kg/injection, schedule: Q01DX005 (ip), vehicle: Klucel (hydroxypropylcellulose) (HPC)); 0 of 6 under setting [6].

As to `CCN(CC)CC.[CH-]1CCCCC1.[CH-]1CCCCC1.[CH-]1CCCCC1.[Cl-].[Cl-].[Sn+4]`, the survivor count was 3 of 6 under setting [7], 0 of 6 under setting [2], 0 of 6 under setting [3] and 0 of 6 under setting [4].

In the case of `O=C(NN(C(=O)c1ccccc1)c1ccccc1)c1ccccc1`, the survivor count under setting [4] is recorded as 5 of 5.

In the case of `C/C(=N\NC(=S)N1CC2CCC(CC2)C1)c1cccc(C)n1`, the T/C under setting [7] is 135 % of control and the T/C under setting [2] was 140 % of control. The survivor count is given as 3 of 6 under setting [2], 2 of 6 under setting [3] and 0 of 6 under setting [4].

As to `O=C1Nc2ccccc2/C1=c1/sc2nc3ccccc3n2c1=O`, the survivor count under setting [5] was 6 of 6.

Take `Nn1c(N/N=C\c2ccccc2)nnc1N/N=C/c1ccccc1`: where the note is “dose: 200.0 mg/kg/injection, schedule: Q01DX001 (ip), vehicle: Klucel (hydroxypropylcellulose) (HPC)”, the survivor count is on record as 2 of 6.

With `O=C(O)C1(NO)CCCCC1`, the T/C reads like this: (dose: 200.0 mg/kg/injection, schedule: Q01DX009 (ip), vehicle: Klucel (hydroxypropylcellulose) (HPC)) 126 % of control; (dose: 400.0 mg/kg/injection, schedule: Q01DX009 (ip), vehicle: Klucel (hydroxypropylcellulose) (HPC)) 142 % of control.

Take `CC(=O)NC(CCO)C(N)=O` (stereo unspecified): the survivor count (dose: 25.0 mg/kg/injection, schedule: Q01DX009 (ip), vehicle: water) is given as 6 of 6.

As for `CCCN(CCC)C1=CC(=O)C(N(CCC)CCC)=CC1=O`, under setting [6], the survivor count was 0 of 5.

As to `CN(Cc1ccco1)NC(=O)C(=O)NCc1ccco1`, under setting [3], the survivor count is 5 of 5.

Turning to `CCOc1ccc(C(C)c2cc3c(cc2OC)OCO3)cc1` (stereo unspecified), the T/C by setting is: (dose: 50.0 mg/kg/injection, schedule: Q01DX005 (ip), vehicle: distilled water + Tween-80, evaluated on day 20) 100 % of control; (dose: 50.0 mg/kg/injection, schedule: Q01DX005 (ip), vehicle: distilled water + Tween-80, evaluated on day 30) 105, 111, 115 % of control; (dose: 50.0 mg/kg/injection, schedule: Q01DX005 (ip), vehicle: distilled water + Tween-80, evaluated on day 60) 111 % of control; (dose: 100.0 mg/kg/injection, schedule: Q01DX005 (ip), vehicle: distilled water + Tween-80, evaluated on day 20) 115 % of control; (dose: 100.0 mg/kg/injection, schedule: Q01DX005 (ip), vehicle: distilled water + Tween-80, evaluated on day 30) 116, 118, 123 % of control; (dose: 100.0 mg/kg/injection, schedule: Q01DX005 (ip), vehicle: distilled water + Tween-80, evaluated on day 60) 120 % of control. The T/C by setting is: (dose: 200.0 mg/kg/injection, schedule: Q01DX005 (ip), vehicle: distilled water + Tween-80, evaluated on day 20) 137 % of control; (dose: 200.0 mg/kg/injection, schedule: Q01DX005 (ip), vehicle: distilled water + Tween-80, evaluated on day 30) 119, 132, 142, 157, 178 % of control; (dose: 200.0 mg/kg/injection, schedule: Q01DX005 (ip), vehicle: distilled water + Tween-80, evaluated on day 60) 131 % of control; (dose: 400.0 mg/kg/injection, schedule: Q01DX005 (ip), vehicle: distilled water + Tween-80, evaluated on day 20) 161 % of control [4 of 6 alive]; (dose: 400.0 mg/kg/injection, schedule: Q01DX005 (ip), vehicle: distilled water + Tween-80, evaluated on day 30) 129 % of control. The survivor count (dose: 250.0 mg/kg/injection, schedule: Q01DX005 (ip), vehicle: distilled water + Tween-80) is given as 6 of 6; the survivor count (dose: 400.0 mg/kg/injection, schedule: Q01DX005 (ip), vehicle: distilled water + Tween-80) is 2 of 6 and 6 of 10; the survivor count (dose: 555.55 mg/kg/injection, schedule: Q01DX005 (ip), vehicle: distilled water + Tween-80) is 4 of 6; the survivor count (dose: 555.56 mg/kg/injection, schedule: Q01DX005 (ip), vehicle: distilled water + Tween-80) is listed as 4 of 6.

Consider `OCC1OC(n2cnc3c(SCc4ccccc4)ncnc32)C(O)C1O` (stereo unspecified), for which, under “dose: 300.0 mg/kg/injection, schedule: Q01DX009 (ip), vehicle: saline with Tween-80”, the survivor count is listed as 5 of 6.

As to `CC(=O)N(C)N=NCCCl`, the T/C (dose: 52.5 mg/kg/injection, schedule: Q01DX005 (ip), vehicle: saline with Tween-80) was 147 % of control. In addition, the survivor count (dose: 105.0 mg/kg/injection, schedule: Q01DX005 (ip), vehicle: saline with Tween-80) was 5 of 6 and the survivor count (dose: 210.0 mg/kg/injection, schedule: Q01DX005 (ip), vehicle: saline with Tween-80) is listed as 6 of 6.
